From patent publication US8338472B2, “Hexahydrocyclopentyl[F]indazole carboxamides and derivatives thereof as selective glucocorticoid receptor modulators” (Merck Sharp & Dohme Corp., priority 2008, dated 2012)
Some results were stated once for a whole list of compounds, not compound by compound.

biological target: T1, glucocorticoid receptor (GR) (Homo sapiens, UniProt P04150); test: Ligand binding assay (GR BIND), 3H-dexamethasone displacement in MDA-MB-453 cell lysate; details: read-out: IC50 in the ligand binding assay; DEX as a reference
T1 sequence (P04150 1-777): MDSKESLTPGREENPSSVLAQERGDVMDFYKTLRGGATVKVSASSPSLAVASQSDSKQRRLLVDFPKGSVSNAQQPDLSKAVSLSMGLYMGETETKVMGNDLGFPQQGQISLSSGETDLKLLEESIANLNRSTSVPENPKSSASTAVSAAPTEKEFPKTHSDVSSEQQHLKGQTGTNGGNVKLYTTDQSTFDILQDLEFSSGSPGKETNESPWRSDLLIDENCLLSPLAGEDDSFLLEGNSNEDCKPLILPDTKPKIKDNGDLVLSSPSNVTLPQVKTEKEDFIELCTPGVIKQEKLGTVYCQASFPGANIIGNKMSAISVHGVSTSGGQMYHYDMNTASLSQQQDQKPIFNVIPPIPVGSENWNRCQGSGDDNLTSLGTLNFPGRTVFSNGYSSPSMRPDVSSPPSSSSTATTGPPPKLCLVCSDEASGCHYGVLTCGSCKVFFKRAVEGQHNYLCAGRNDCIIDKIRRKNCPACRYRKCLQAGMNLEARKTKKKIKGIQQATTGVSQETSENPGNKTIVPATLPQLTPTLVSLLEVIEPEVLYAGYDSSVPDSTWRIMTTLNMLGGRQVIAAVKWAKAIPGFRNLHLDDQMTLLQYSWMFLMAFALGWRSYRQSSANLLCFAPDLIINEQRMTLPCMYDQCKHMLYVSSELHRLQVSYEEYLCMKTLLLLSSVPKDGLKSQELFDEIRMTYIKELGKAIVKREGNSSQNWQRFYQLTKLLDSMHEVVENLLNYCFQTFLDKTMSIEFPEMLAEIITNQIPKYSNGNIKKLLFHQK

IC50, < 1 µM:
CCCN(CCC)C(=O)[C@H]1CCC2=Cc3c(cnn3-c3ccc(F)cc3)C[C@@]21C [Compound 1, (4αR,5S)-1-(4-Fluorophenyl)-4α-methyl-N,N-dipropyl-1,4,4α,5,6,7-hexahydrocyclopenta[f]indazole-5-carboxamide]
C[C@]12Cc3cnn(-c4ccc(F)cc4)c3C=C1CC[C@@H]2C(=O)NC(Cc1ccccc1)c1ccccc1 (stereo partly drawn) [Compound 2, (4αR,5S)-N-(1,2-diphenylethyl)-1-(4-fluorophenyl)-4α-methyl-1,4,4α,5,6,7-hexahydrocyclopenta[f]indazole-5-carboxamide]
C[C@]12Cc3cnn(-c4ccc(F)cc4)c3C=C1CC[C@@H]2C(=O)NCc1ccc(Cl)cc1Cl [Compound 3, (4αR,5S)-N-(2,4-dichlorobenzyl)-1-(4-fluorophenyl)-4α-methyl-1,4,4α,5,6,7-hexahydrocyclopenta[f]indazole-5-carboxamide]
CCCN(CC)C(=O)[C@H]1CCC2=Cc3c(cnn3-c3ccc(F)cc3)C[C@@]21C [Compound 4, (4αR,5S)-N-ethyl-1-(4-fluorophenyl)-4α-methyl-N-propyl-1,4,4α,5,6,7-hexahydrocyclopenta[f]indazole-5-carboxamide]
CCCN(CC1CC1)C(=O)[C@H]1CCC2=Cc3c(cnn3-c3ccc(F)cc3)C[C@@]21C [Compound 5, (4αR,5S)-N-(cyclopropylmethyl)-1-(4-fluorophenyl)-4α-methyl-N-propyl-1,4,4α,5,6,7-hexahydrocyclopenta[f]indazole-5-carboxamide]
C[C@]12Cc3cnn(-c4ccc(F)cc4)c3C=C1CC[C@@H]2C(=O)Nc1ccccc1 [Compound 6, (4αR,5S)-1-(4-fluorophenyl)-4α-methyl-N-phenyl-1,4,4α,5,6,7-hexahydrocyclopenta[f]indazole-5-carboxamide]
C[C@]12Cc3cnn(-c4ccc(F)cc4)c3C=C1CC[C@@H]2C(=O)N(Cc1ccc(Cl)cc1Cl)CC1CC1 [Compound 7, (4αR,5S)-N-(cyclopropylmethyl)-N-(2,4-dichlorobenzyl)-1-(4-fluorophenyl)-4α-methyl-1,4,4α,5,6,7-hexahydrocyclopenta[f]indazole-5-carboxamide]
CC(C)CCN(CCC(C)C)C(=O)[C@H]1CCC2=Cc3c(cnn3-c3ccc(F)cc3)C[C@@]21C [Compound 8, (4αR,5S)-1-(4-fluorophenyl)-4α-methyl-N,N-bis(3-methylbutyl)-1,4,4α,5,6,7-hexahydrocyclopenta[f]indazole-5-carboxamide]
CC(O)CN(CC(C)O)C(=O)[C@H]1CCC2=Cc3c(cnn3-c3ccc(F)cc3)C[C@@]21C (stereo partly drawn) [Compound 10, (4αR,5S)-1-(4-fluorophenyl)-N,N-bis(2-hydroxypropyl)-4α-methyl-1,4,4α,5,6,7-hexahydrocyclopenta[f]indazole-5-carboxamide]
CC(C)CN(CC(C)C)C(=O)[C@H]1CCC2=Cc3c(cnn3-c3ccc(F)cc3)C[C@@]21C [Compound 11, (4αR,5S)-1-(4-fluorophenyl)-N,N-diisobutyl-4α-methyl-1,4,4α,5,6,7-hexahydrocyclopenta[f]indazole-5-carboxamide]
CCCCN(CC)C(=O)[C@H]1CCC2=Cc3c(cnn3-c3ccc(F)cc3)C[C@@]21C [Compound 12, (4αR,5S)-N-butyl-N-ethyl-1-(4-fluorophenyl)-4α-methyl-1,4 ,4α,5,6,7-hexahydrocyclopenta[f]indazole-5-carboxamide]
C[C@]12Cc3cnn(-c4ccc(F)cc4)c3C=C1CC[C@@H]2C(=O)N(CCC#N)CCC#N [Compound 13, (4αR,5S)-N,N-bis(2-cyanoethyl)-1-(4-fluorophenyl)-4α-methyl-1,4,4α,5,6,7-hexahydrocyclopenta[f]indazole-5-carboxamide]
C[C@]12Cc3cnn(-c4ccc(F)cc4)c3C=C1CC[C@@H]2C(=O)N(CCC#N)C1CC1 [Compound 14, (4αR,5S)-N-(2-cyanoethyl)-N-cyclopropyl-1-(4-fluorophenyl)-4α-methyl-1,4,4α,5,6,7-hexahydrocyclopenta[f]indazole-5-carboxamide]
C[C@]12Cc3cnn(-c4ccc(F)cc4)c3C=C1CC[C@@H]2C(=O)N1CCCC(=O)CC1 [Compound 15, 1-{[(4αR,5S)-1-(4-fluorophenyl)-4α-methyl-1,4,4α,5,6,7-hexahydrocyclopenta[f]indazol-5-yl]carbonyl}azepan-4-one]
CCCN(C(=O)[C@H]1CCC2=Cc3c(cnn3-c3ccc(F)cc3)C[C@@]21C)C(C)CC (stereo partly drawn) [Compound 16, (4αR,5S)-N-(sec-butyl)-1-(4-fluorophenyl)-4α-methyl-N-propyl-1,4,4α,5,6,7-hexahydrocyclopenta[f]indazole-5-carboxamide]
CC1CN(C(=O)[C@H]2CCC3=Cc4c(cnn4-c4ccc(F)cc4)C[C@@]32C)CC(C)O1 (stereo partly drawn) [Compound 17, (4αR,5S)-5-[(2,6-dimethylmorpholin-4-yl)carbonyl]-1-(4-fluorophenyl)-4α-methyl-1,4,4α,5,6,7-hexahydrocyclopenta[f]indazole]
C[C@]12Cc3cnn(-c4ccc(F)cc4)c3C=C1CC[C@@H]2C(=O)N1CCCC1CCc1ccccc1 (stereo partly drawn) [Compound 19, (4αR,5S)-1-(4-fluorophenyl)-4α-methyl-5-{[2-(2-phenylethyl)pyrrolidin-1-yl]carbonyl}-1,4,4α,5,6,7-hexahydrocyclopenta[f]indazole]
C[C@]12Cc3cnn(-c4ccc(F)cc4)c3C=C1CC[C@@H]2C(=O)N1CCCC(CCc2ccccc2)C1 (stereo partly drawn) [Compound 20, (4αR,5S)-1-(4-fluorophenyl)-4α-methyl-5-{[3-(2-phenylethyl)piperidin-1-yl]carbonyl}-1,4,4α,5,6,7-hexahydrocyclopenta[f]indazole]
C[C@]12Cc3cnn(-c4ccc(F)cc4)c3C=C1CC[C@@H]2C(=O)N1CCCC(Cc2cccc(C(F)(F)F)c2)C1 (stereo partly drawn) [Compound 21, (4αR,5S)-1-(4-fluorophenyl)-4α-methyl-5-({3-[3-(trifluoromethyl)benzyl]piperidin-1-yl}carbonyl)-1,4,4α,5,6,7-hexahydrocyclopenta[f]indazole]
C[C@]12Cc3cnn(-c4ccc(F)cc4)c3C=C1CC[C@@H]2C(=O)N1CCCCC1Cc1ccccc1 (stereo partly drawn) [Compound 22, (4αR,5S)-5-[(2-benzylpiperidin-1-yl)carbonyl]-1-(4-fluorophenyl)-4α-methyl-1,4,4α,5,6,7-hexahydrocyclopenta[f]indazole]
C[C@]12Cc3cnn(-c4ccc(F)cc4)c3C=C1CC[C@@H]2C(=O)Nc1ccccc1S(N)(=O)=O [Compound 23, (4αR,5S)-N-[2-(aminosulfonyl)phenyl]-1-(4-fluorophenyl)-4α-methyl-1,4,4α,5,6,7-hexahydrocyclopenta[f]indazole-5-carboxamide]
CCNC(=O)CN(CCc1ccccc1)C(=O)[C@H]1CCC2=Cc3c(cnn3-c3ccc(F)cc3)C[C@@]21C [Compound 24, (4αR,5S)-N-[2-(ethylamino)-2-oxoethyl]-1-(4-fluorophenyl)-4α-methyl-N-(2-phenylethyl)-1,4,4α,5,6,7-hexahydrocyclopenta[f]indazole-5-carboxanide]
C[C@]12Cc3cnn(-c4ccc(F)cc4)c3C=C1CC[C@@H]2C(=O)N(CCO)Cc1ccccc1F [Compound 25, (4α,5S)-N-(2-fluorobenzyl)-1-(4-fluorophenyl)-N-(2-hydroxyethyl)-4α-methyl-1,4,4α,5,6,7-hexahydrocyclopenta[f]indazole-5-carboxamide]
CCCCN(CCO)C(=O)[C@H]1CCC2=Cc3c(cnn3-c3ccc(F)cc3)C[C@@]21C [Compound 26, (4αR,5S)-N-butyl-1-(4-fluorophenyl)-N-(2-hydroxyethyl)-4α-methyl-1,4,4α,5,6,7-hexahydrocyclopenta[f]indazole-5-carboxamide]
Cc1ccc(CN(CCO)C(=O)[C@H]2CCC3=Cc4c(cnn4-c4ccc(F)cc4)C[C@@]32C)cc1F [Compound 27, (4αR,5S)-N-(3-fluoro-4-methylbenzyl)-1-(4-fluorophenyl)-N-(2-hydroxyethyl)-4α-methyl-1,4,4α,5,6,7-hexahydrocyclopenta[f]indazole-5-carboxamide]
C[C@]12Cc3cnn(-c4ccc(F)cc4)c3C=C1CC[C@@H]2C(=O)N(CCO)Cc1cc(F)c(F)c(F)c1 [Compound 28, (4αR,5S)-1-(4-fluorophenyl)-N-(2-hydroxyethyl)-4α-methyl-N-(3,4,5-trifluorobenzyl)-1,4,4α,5,6,7-hexahydrocyclopenta[f] indazole-5-carboxamide]
C[C@]12Cc3cnn(-c4ccc(F)cc4)c3C=C1CC[C@@H]2C(=O)N(CCO)CC(=O)c1coc2ccccc12 [Compound 29, (4αR,5S)-N-[2-(1-benzofuran-3-yl)-2-oxoethyl]-1-(4-fluorophenyl)-N-(2-hydroxyethyl)-4α-methyl-1,4,4α,5,6,7-hexahydrocyclopenta[f]indazole-5-carboxamide]
